Measured values published in patent US20060287503.
Construct, isoform or probe ends are uncertain for at least one entry. For some assays here: Negatives hold for the conditions tested. For some assays here: Protein sequences can lack the tags named with them. For some assays here: The comparison behind a weaker result is the experiment's own reference, which may not be listed here.

Chains of the proteins cited; added tags and fusions are not shown. Chains listed by the source or under a name are the forms on record and can include a tag or linker.
RIP15/RXRalpha heterodimer (Mus musculus / Homo sapiens), one chain, as listed by the source, chain 2 of 2: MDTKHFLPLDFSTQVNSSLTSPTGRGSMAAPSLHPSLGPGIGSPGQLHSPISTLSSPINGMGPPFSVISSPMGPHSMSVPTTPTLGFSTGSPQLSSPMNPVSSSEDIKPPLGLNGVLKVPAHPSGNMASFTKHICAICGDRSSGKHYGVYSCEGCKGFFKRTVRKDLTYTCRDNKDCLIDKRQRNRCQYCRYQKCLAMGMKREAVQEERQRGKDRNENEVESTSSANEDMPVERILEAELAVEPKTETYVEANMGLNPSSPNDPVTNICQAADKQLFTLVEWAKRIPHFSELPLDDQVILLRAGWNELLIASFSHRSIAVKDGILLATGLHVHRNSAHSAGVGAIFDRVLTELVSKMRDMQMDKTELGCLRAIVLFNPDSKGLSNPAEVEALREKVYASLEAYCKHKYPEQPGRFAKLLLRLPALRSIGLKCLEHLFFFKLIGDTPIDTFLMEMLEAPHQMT
RIP15/RXRalpha heterodimer (Mus musculus / Homo sapiens), one chain, as listed by the source, chain 1 of 2: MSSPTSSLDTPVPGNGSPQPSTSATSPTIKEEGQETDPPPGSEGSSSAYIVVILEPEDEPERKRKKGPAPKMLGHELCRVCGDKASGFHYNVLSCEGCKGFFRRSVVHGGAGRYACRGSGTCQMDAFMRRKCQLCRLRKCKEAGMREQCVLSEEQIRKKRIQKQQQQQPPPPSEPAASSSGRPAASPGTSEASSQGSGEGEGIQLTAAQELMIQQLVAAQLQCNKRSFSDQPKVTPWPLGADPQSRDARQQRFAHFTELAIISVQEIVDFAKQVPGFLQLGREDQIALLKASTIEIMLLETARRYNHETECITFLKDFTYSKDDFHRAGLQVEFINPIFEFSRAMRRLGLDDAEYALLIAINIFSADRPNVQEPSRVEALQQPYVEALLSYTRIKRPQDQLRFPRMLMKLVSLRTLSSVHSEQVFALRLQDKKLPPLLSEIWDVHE

How the values were obtained:
Assay in all cases: EMSA
[1] = system: RIP14C (RIP14-1 with MYTG insertion in D domain)/RXRalpha heterodimer insertion of MYTG in D domain of RIP14-1 at the position found in RIP14-2 (Mus musculus / Homo sapiens); conditions: similar to RIP14-1/RXR; protein translated in vitro; protein details: human RXRalpha expressed in E. coli; label: 32P end label
[2] = system: RIP15/RXRalpha heterodimer (Mus musculus / Homo sapiens); conditions: protein translated in vitro; protein details: human RXRalpha expressed in E. coli; label: 32P end label
RIP14-1 (Mus musculus) = target: T1, RIP14-1 (Mus musculus) (UniProt Q60641); conditions: protein translated in vitro, label: 32P end label
T1 sequence: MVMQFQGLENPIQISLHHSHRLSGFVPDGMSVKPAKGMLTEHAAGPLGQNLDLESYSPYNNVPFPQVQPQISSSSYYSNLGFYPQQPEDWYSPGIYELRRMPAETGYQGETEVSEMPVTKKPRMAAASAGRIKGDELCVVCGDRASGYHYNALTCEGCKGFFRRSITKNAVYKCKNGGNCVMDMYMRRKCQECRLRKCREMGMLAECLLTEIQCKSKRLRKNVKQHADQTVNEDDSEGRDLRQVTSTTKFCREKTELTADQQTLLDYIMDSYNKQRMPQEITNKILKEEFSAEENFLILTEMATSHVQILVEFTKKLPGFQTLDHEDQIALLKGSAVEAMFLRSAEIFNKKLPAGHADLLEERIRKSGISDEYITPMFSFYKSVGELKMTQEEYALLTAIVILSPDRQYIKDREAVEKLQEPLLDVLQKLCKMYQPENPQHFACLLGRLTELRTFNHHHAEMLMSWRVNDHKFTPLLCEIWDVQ

| Sequence | binding result [1] | binding result [2] | binding result (RIP14-1 (Mus musculus); some binding without RXR) | binding result (RIP14-1 (Mus musculus); without RXR) |
| --- | --- | --- | --- | --- |
| GATCCGGGTAGGGTTCACCGAAAGTTCACTCGA (double strand) [betaRARE] | binds | binds | binds more weakly | – |
| CTAGACAAGGGTTCAATGCACTTGTCCATCG (double strand) [hsp27 EcRE] | binds | – | – | no binding |
